In assay [1] the target is p300/CBP-associated factor (pCAF) (human (endogenous in A549)) (UniProt Q92831). Description: co-IP; endogenous proteins; A549 cells immunoprecipitated with anti-p300, anti-pCAF or normal IgG, immunoblot; lysis buffer 50 mM Tris pH 8.0, 500 mM NaCl, 0.5% Nonidet P-40, 1 mM dithiothreitol. A general note: A western blot detects proteins with antibodies after separation by electrophoresis.

Sequences of proteins named here, by UniProt entry; tags and fusion partners are left off. Residues count along the entry.
UniProt Q92831: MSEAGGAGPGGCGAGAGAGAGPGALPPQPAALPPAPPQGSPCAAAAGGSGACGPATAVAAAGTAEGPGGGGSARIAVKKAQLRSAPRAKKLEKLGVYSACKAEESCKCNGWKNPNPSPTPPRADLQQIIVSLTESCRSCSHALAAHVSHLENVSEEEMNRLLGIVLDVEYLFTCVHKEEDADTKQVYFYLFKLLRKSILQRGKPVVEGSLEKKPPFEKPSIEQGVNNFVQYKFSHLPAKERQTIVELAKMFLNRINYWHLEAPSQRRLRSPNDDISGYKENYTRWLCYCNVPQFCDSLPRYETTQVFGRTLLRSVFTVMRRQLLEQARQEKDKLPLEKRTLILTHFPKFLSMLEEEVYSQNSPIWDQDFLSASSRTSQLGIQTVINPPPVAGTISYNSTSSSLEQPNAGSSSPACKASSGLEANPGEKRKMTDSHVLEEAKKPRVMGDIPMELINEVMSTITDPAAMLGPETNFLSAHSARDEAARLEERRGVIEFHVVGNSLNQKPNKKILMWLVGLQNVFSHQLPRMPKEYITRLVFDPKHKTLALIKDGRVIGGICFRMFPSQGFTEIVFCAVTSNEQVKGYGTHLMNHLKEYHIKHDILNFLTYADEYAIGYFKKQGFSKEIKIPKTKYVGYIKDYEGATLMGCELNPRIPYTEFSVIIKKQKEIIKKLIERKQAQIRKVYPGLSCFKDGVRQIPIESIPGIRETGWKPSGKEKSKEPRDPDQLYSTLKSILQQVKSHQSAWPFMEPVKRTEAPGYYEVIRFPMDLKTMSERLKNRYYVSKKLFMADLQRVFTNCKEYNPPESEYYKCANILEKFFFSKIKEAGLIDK
UniProt Q09472: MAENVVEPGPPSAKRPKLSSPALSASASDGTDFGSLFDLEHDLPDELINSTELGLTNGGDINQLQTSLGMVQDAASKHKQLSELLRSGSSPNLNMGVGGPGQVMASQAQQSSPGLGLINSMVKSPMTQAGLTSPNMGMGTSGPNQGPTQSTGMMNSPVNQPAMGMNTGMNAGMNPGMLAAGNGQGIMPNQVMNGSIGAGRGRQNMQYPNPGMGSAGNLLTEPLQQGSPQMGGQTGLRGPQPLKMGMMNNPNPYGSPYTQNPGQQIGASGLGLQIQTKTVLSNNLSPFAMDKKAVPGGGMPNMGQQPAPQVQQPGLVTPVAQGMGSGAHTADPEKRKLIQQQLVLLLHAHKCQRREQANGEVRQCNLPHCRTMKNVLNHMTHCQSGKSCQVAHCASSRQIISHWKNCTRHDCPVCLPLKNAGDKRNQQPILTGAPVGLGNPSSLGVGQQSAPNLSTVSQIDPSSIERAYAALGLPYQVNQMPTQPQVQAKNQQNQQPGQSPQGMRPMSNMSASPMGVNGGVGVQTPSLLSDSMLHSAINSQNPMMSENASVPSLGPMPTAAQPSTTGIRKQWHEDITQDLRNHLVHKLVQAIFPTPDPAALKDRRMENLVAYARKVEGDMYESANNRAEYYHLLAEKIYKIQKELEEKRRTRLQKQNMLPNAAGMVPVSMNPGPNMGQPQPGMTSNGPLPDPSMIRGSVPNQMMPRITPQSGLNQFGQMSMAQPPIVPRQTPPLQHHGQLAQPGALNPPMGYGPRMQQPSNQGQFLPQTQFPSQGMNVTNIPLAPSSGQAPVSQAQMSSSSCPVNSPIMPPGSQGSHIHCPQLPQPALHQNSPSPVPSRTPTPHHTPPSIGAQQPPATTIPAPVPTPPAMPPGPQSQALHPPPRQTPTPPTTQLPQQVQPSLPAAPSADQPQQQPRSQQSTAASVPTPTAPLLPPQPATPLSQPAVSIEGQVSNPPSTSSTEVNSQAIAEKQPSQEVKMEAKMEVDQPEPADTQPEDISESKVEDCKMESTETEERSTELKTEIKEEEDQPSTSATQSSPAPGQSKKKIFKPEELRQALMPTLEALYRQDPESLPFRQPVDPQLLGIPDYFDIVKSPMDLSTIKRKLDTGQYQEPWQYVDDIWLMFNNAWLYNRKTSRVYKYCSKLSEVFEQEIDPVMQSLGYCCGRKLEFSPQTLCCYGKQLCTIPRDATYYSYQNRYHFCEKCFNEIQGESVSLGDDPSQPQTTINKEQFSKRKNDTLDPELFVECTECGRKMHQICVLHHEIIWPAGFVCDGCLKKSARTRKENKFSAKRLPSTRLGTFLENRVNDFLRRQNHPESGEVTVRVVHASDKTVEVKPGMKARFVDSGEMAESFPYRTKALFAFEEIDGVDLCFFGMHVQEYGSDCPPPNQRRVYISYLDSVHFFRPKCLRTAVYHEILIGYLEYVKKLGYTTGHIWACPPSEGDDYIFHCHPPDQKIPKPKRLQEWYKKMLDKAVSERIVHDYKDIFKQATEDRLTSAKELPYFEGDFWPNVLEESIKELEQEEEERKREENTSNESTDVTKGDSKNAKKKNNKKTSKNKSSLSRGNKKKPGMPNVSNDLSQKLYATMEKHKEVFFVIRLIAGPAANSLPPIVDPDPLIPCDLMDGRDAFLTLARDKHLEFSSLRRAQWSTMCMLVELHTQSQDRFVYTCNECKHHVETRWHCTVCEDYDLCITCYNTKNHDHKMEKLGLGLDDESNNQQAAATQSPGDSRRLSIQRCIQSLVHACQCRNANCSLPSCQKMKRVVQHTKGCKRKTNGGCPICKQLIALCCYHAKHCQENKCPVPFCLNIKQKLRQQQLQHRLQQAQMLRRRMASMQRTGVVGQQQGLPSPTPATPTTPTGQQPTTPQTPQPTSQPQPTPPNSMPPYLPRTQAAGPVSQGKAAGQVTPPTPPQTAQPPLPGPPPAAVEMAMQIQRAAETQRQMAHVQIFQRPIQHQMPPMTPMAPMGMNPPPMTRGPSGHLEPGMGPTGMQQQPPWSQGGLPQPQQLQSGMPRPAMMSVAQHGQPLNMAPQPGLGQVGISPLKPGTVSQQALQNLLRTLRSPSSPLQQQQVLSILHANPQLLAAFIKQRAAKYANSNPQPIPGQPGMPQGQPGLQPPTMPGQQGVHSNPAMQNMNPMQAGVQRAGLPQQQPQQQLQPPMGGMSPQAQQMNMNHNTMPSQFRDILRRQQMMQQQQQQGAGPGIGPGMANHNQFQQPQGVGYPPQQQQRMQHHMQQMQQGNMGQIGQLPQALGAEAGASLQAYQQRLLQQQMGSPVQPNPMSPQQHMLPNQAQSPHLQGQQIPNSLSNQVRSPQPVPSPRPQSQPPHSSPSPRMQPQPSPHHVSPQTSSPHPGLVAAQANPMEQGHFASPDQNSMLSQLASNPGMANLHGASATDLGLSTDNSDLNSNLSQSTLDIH
UniProt P46531, residues 19-2555: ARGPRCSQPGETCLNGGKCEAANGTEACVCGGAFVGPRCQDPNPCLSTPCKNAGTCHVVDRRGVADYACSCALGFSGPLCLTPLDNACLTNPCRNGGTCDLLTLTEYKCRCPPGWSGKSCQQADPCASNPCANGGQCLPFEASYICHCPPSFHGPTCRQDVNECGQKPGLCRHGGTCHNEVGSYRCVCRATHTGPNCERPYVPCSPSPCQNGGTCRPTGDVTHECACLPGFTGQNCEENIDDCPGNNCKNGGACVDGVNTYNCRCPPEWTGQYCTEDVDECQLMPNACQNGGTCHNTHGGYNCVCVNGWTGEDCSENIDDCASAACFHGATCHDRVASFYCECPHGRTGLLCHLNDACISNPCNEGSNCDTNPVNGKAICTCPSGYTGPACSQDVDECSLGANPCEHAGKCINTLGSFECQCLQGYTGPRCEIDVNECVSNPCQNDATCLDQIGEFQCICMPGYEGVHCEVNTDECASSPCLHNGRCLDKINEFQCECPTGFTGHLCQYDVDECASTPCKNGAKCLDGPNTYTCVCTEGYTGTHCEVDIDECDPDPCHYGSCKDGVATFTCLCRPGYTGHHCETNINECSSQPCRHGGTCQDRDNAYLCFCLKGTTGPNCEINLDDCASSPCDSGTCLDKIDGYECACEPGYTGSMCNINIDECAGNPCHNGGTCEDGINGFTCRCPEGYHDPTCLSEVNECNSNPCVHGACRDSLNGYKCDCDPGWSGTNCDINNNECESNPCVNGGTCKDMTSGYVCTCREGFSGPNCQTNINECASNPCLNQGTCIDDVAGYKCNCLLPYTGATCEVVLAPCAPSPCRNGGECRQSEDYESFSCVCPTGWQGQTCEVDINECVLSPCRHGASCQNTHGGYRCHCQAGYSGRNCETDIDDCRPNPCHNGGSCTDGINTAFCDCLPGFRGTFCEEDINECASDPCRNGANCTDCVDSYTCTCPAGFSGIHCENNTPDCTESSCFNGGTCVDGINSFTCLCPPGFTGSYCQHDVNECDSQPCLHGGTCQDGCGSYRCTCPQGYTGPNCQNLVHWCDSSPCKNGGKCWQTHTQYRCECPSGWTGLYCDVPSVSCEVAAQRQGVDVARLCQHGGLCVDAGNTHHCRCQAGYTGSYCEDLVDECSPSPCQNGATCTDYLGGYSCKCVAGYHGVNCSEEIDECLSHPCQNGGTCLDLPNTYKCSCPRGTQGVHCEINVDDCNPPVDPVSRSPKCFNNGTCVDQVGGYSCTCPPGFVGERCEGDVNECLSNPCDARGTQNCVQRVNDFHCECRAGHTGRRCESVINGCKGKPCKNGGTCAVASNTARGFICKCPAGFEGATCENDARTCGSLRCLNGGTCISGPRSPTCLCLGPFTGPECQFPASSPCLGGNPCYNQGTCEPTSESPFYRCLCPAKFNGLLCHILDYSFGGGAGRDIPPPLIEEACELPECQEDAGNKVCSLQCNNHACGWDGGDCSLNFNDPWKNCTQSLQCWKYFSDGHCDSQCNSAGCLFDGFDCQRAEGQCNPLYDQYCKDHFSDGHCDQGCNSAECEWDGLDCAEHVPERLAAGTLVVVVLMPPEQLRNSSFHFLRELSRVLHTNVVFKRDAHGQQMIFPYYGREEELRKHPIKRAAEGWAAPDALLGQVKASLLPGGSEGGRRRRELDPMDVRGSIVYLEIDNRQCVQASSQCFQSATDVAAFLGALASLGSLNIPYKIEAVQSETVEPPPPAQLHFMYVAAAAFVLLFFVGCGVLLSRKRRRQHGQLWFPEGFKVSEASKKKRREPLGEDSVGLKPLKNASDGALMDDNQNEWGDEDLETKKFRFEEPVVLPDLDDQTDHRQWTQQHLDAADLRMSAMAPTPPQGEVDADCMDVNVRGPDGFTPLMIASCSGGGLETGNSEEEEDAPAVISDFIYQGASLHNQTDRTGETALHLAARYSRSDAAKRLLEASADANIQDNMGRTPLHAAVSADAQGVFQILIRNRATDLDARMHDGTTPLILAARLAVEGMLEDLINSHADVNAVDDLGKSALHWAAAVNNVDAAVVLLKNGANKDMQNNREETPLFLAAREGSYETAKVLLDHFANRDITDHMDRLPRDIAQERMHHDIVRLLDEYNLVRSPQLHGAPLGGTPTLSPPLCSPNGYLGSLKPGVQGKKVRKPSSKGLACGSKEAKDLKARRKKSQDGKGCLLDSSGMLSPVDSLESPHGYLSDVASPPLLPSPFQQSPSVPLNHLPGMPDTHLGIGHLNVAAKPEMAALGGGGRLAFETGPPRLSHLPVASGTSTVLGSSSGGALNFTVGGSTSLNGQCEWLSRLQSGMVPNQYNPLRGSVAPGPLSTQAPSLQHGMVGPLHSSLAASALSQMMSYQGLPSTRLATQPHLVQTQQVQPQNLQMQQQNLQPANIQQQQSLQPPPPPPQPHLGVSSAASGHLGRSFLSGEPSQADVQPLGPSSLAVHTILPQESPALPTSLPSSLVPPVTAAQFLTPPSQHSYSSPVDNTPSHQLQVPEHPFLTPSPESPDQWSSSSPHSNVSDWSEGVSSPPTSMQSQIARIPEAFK

The target in assay [2] is histone acetyltransferase p300 (human (endogenous in A549)) (UniProt Q09472). The assay is described as above.

No constants are given. Whether binding was seen depends on the method and setting. In cells and extracts the contact can be indirect. Some binding calls cover weakened binding; strength is not graded here.

On to “Notch1 (endogenous) (from UniProt P46531 19-2555) (receptor)”, for which the binding entry in assay [1] and in assay [2] was “binds” in each case.

(Values after publication PMC8418606.)
